System: Spleen, Liver, Thymus, and CNS tissues
Assay: In vivo detection of morphine-mediated apoptosis: apoptosis positive cell counts in tissue sections after IV FAM-VAD-FMK
Settings: for Counts (apoptosis positive cell counts): 8.3 μg FAM-VAD-FMK IV, 45 minute incubation; for induction of apoptosis by morphine alone: morphine without LPS

With `CN1CC[C@]23c4c5ccc(O)c4O[C@H]2[C@@H](O)C=C[C@H]3[C@H]1C5` [Morphine, morphine] the “Counts (apoptosis positive cell counts)” value (CNS) was 0, the “Counts (apoptosis positive cell counts)” value (Liver) was 12 ± 3 and the “enhancement of LPS induced apoptosis” value (Spleen and Thymus (p=0.012 and 0.0018 respectively), morphine with LPS) was “statistically enhanced LPS induced apoptosis”. For the same compound, the “Counts (apoptosis positive cell counts)” value (Spleen) was 39 ± 12, the “Counts (apoptosis positive cell counts)” value (Thymus) was 12 ± 6 and the increase in apoptosis (liver and central nervous system, morphine with LPS) was “not statistically significant”. For the same compound, the “induction of apoptosis by morphine alone” value was “did not induce apoptosis” and the “induction of apoptosis by morphine alone” value (listed as morphine) was “did not significantly induce apoptosis”.

— patent publication US8187573B2, “In vivo detection of apoptosis” (priority 2005, dated 2012)
